These are yes or no findings as the source states them, for the method shown. Some results given as binding are weak or reduced against the parent protein; the word gives no strength.
Tests used:
[1] = molecular target: CD27 receptor (UniProt P26842); test: anti-FLAG IP of the CD27 receptor complex from 293-CD27 cells treated with FLAG-CD70
[2] = molecular target: CD27 receptor (UniProt P26842); test: receptor complex IP through FLAG-CD70 from Ramos cells, anti-TRAF2 blot
[3] = molecular target: CD27 receptor (UniProt P26842); test: receptor complex IP through FLAG-CD70 from Ramos cells

Amino acid sequences for entries named in this document (tags omitted). Residues count along the entry.
UniProt P26842, residues 20-260: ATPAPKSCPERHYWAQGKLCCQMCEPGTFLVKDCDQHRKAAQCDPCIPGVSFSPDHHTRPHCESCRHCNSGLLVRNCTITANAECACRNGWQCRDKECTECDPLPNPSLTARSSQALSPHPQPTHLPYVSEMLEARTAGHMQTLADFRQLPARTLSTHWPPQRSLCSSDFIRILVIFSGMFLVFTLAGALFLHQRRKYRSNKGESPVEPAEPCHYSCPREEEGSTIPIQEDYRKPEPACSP

Measured: binding

B1: TRAF2 (endogenous, recruited to the CD27 receptor) (protein, UniProt Q12933 2-501, looked up)
chain: AAASVTPPGSLELLQPGFSKTLLGTKLEAKYLCSACRNVLRRPFQAQCGHRYCSFCLASILSSGPQNCAACVHEGIYEEGISILESSSAFPDNAARREVESLPAVCPSDGCTWKGTLKEYESCHEGRCPLMLTECPACKGLVRLGEKERHLEHECPERSLSCRHCRAPCCGADVKAHHEVCPKFPLTCDGCGKKKIPREKFQDHVKTCGKCRVPCRFHAIGCLETVEGEKQQEHEVQWLREHLAMLLSSVLEAKPLLGDQSHAGSELLQRCESLEKKTATFENIVCVLNREVERVAMTAEACSRQHRLDQDKIEALSSKVQQLERSIGLKDLAMADLEQKVLEMEASTYDGVFIWKISDFARKRQEAVAGRIPAIFSPAFYTSRYGYKMCLRIYLNGDGTGRGTHLSLFFVVMKGPNDALLRWPFNQKVTLMLLDQNNREHVIDAFRPDVTSSSFQRPVNDMNIASGCPLFCPVSKMEAKNSYVRDDAIFIKAIVDLTGL
binds: all assays above

— patent US20100204091A1
